Test results as given in PMC9440017, “Structural basis for Gemin5 decamer-mediated mRNA binding” (Nature Communications, 2022).

Target: T1, G5C (Gemin5 841-1508) wild type (Homo sapiens) (UniProt Q8TEQ6)
T1 sequence (looked up): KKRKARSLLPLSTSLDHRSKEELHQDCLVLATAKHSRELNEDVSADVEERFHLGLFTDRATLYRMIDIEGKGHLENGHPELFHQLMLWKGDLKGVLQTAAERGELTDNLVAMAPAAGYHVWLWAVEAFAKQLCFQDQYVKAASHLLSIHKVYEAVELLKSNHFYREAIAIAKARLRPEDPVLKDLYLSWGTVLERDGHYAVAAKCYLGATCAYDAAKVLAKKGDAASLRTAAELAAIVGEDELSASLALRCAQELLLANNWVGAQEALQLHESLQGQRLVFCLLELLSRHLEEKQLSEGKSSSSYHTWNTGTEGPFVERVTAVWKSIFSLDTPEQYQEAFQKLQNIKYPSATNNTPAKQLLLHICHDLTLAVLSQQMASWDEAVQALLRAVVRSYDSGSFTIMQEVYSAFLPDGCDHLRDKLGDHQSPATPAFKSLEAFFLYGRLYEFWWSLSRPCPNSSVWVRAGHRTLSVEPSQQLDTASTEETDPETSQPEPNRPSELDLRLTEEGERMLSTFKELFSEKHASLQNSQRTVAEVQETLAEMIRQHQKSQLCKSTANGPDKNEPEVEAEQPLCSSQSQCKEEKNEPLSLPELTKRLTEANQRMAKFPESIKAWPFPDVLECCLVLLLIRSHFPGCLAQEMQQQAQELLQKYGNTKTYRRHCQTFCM
Test: fluorescence polarization
Details: 40 nM RNA; FP: 20 mM Tris-HCl pH 7.5, 150 mM NaCl, 10 nM RNA (40 nM U7), protein 0-41 uM, temperature not stated; recombinant protein; residues 841-1508; protein details: N-terminal His6 removed by TEV; label: 5' 6-FAM

UUUUUUU [poly-U (U7)] was tested. Which Kd did it give?
The Kd was over 500 µM.

Protein sequences can lack the tags named with them.
